Test results taken from patent US6838090B2, “Water-insoluble drug delivery system” (priority 1998, dated 2005).
Some entries share one result that the patent states for a list of compounds. For at least one compound, name, drawing or mass did not settle the structure.

Details: single intravenous dose of 40 mg/kg, SCID mice bearing human breast cancer xenografts

C=CCNC1=C2C[C@@H](C)C[C@H](OC)[C@H](O)[C@@H](C)/C=C(\C)[C@H](OC(N)=O)[C@@H](OC)/C=C\C=C(/C)C(=O)NC(=CC1=O)C2=O [Example 17-AAG, 17-allylaminogeldanamycin]
time remaining detectable in tumor tissue after administration: more than 48 hours
concentration in tumor tissue (HPLC): 0.5 to 1 µg/g
